Measured values published in the supplement of paper PMC3334620.
The full ranking holds about 33,000 sequences; the median of “E-score (-0.5 to 0.5)” is about -8e-05, and the highest 2% start at about 0.23. Some of the results follow.

molecular target: T1, Nrg2 (UniProt P38082); assay: PBM E-score (8-mer binding enrichment) (E-score (-0.5 to 0.5)); higher = stronger / more preferred TF binding; conditions: protein concentration: 100 nM; construct: GST-full length
T1 sequence: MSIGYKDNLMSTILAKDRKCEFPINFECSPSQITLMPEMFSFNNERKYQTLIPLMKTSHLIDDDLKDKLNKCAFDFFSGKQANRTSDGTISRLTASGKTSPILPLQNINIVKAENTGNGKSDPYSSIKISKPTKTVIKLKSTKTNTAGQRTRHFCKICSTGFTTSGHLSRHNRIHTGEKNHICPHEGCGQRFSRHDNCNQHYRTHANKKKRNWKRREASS
Method: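 Universal 'all 10-mer' protein binding microarrays (Agilent AMADID 015681) probed with GST-tagged S. cerevisiae TFs (full-length or DBD) made by in vitro transcription/translation (PURExpress), about 100-200 nM. Bound TF was detected with fluorescent anti-GST. Each ungapped 8-mer (which stands for itself and its reverse complement) is scored by the PBM enrichment score (E-score), a modified Wilcoxon-Mann-Whitney statistic from -0.5 to +0.5, computed with the Universal PBM Analysis Suite. Scale: above 0.35 generally sequence-specific binding.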

Sequence | PBM E-score
ATCTGACC | 0.125
ATTTACGA | 0.024
GAGTGATC | 0.136
AAGACCGC | -0.0957
TCCGGAGA | -0.0525
ACCAACTA | 0.17
CCACCTAG | -0.13
CATCATCG | 0.0376
AAAACAAC | -0.185
ATTGCTTC | 0.0796
AAAATAAG | 0.153
CACATAGG | -0.028
CCTCCATC | -0.257
CAGGTTGA | -0.0404
GCGCCTCA | 0.00325
CGAACGCA | 0.282
AACCGGCA | -0.106
CACTCAAG | -0.126
ACATTTCT | 0.1
AGGGCAAC | 0.115
CCATGCAG | 0.155
ATCGCGGC | 0.166

Sequence | PBM E-score
CCCTTAAA | 0.101
CCCATATC | 0.186
ATTTCCAG | 0.0415
GCTTCTAA | -0.133
CGCAACAA | 0.0368
GGCTCGGA | -0.246
CAAGCGAA | 0.147
TCGGCCCA | -0.0697
ATTTGGGG | 0.098
CTGGTTAC | -0.23
ATCTTAAT | 0.0874
CAAAGTTA | 0.135
CCTTAGTC | -0.119
AGCAACTA | 0.00881
GAGGCGAC | -0.131
AAGGCCGG | -0.146
GGTAGGGA | 0.0892
TCGTTACA | -0.0882
GCTTAGAA | -0.104
AATCCATC | 0.127
CTGTAGCA | -0.167
GAGTTCCA | 0.00119

Sequence | PBM E-score
CTCAGTAC | -0.0223
ACTGGCTA | -0.124
AGCGTGCC | -0.194
CGTTTCTC | -0.0286
CGCCCCAA | 0.261
GCTGTCCC | -0.00551
AGGAGTAG | -0.0836
AGATAGGA | -0.0906
ACATCGAA | 0.14
CATAAAAG | -0.198
CCACCTAC | -0.174
AACTCCAA | 0.0352
AGGACCAA | 0.00705
CAACAAGA | 0.122
CCCGCTAC | -0.0356
AGAAACAC | 0.0617
ACTTACAT | -0.0423
ACCATAAC | 0.171
GACGTCAC | 0.0326
AAAAGGAT | 0.0569
CACGTAAA | -0.198
CCTCTGTC | 0.00755

2 records drawn at random from those above:
Sequence | PBM E-score
GCTGTCCC | -0.00551
CAACAAGA | 0.122

Carrying on.

Sequence | PBM E-score
GACTCCAC | -0.261
AGCTGCAC | 0.0402
ACCCTTAA | 0.152
ACTACCCT | 0.188
CTAAGAAA | 0.0878
TCGGGCCA | -0.122
AACTCACA | 0.102
CCAACCAC | 0.196
ACTCTTTG | -0.101
CGGAGTGC | 0.0897
GGGCGGGA | 0.083
AGCGTTTG | -0.147
AGCAGCAA | 0.0369
ACAGGGGT | 0.0476
AGGATCGC | -0.0753
CGAGTACA | 0.131
ACGACCGT | -0.187
GCAGGCAC | -0.211
ACCAACAC | 0.102
CCGTCCAA | -0.145

Taken from the listing for reference:
Sequence | PBM E-score
ACCAACAC | 0.102
CCGTCCAA | -0.145
